# Data source: PubChem BioAssay AID1259254 (NCATS, 2017)
# Aim: 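Finding genes that stop cells copying their DNA twice in one cycle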 (primary screen)
# Cells: human HCT116 colorectal cancer cells
# Knock-down reagent: single siRNA against human genes
# Timing: 3 days
# Detection: 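Nuclei stained with Hoechst and imaged; cell-cycle phase assigned by DNA content; G2 share scaled per plate, non-targeting siRNA 0%, GMNN siRNA 100%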
# Reading the numbers: G2 robust z-score and G2 cells, % of GMNN control: higher = more G2 cells, more excess DNA replication; raw share of cells in G2: higher = larger share of cells with G2 DNA content
# Hit rule: 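Active siRNAs have a G2 robust z of 5 or more median absolute deviations over the median, which in these data means about 38% or higher of GMNN control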
# The whole screen tested about 59,000 reagents; this is a part drawn at random. Over the whole deposit, about 1,550 (2.6%) were called active. 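G2 share is only a proxy for re-replication; each gene was hit by three separate siRNAs, and active genes were retested.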 Raw values vary from plate to plate and are shown uncorrected. A number with no mark means an inactive call. Reagents against one gene are numbered here. Not stated in the record: the amount of reagent.
Gene,reagent,G2 robust z-score,"G2 cells, % of GMNN control",raw share of cells in G2 (%)
ZNF585B,1,0.96,9.72,6.43
ZNF585B,2,0.932,9.52,6.47
ZNF585B,3,-0.748,-2.29,2.72
AKR1B10,1,0.188,4.29,8.31
AKR1B10,2,0.463,6.23,6.93
AKR1B10,3,0.0727,3.48,5.69
CCNY,1,0.307,5.13,5.44
CCNY,2,-0.406,0.11,3.17
CCNY,3,0.475,6.31,5.21
KRR1,1,4.18,32.4,14.9
KRR1,2,3.94,30.7,14.4
KRR1,3,0.0709,3.47,7.76
RNF41,1,-0.527,-0.744,4.99
RNF41,2,8.92 (active),65.7,31.4
RNF41,3,0.646,7.51,6.14
CROCC2,1,-0.649,-1.6,3.32
CROCC2,2,-1.38,-6.71,1.15
CROCC2,3,-0.47,-0.336,2.98
KDELR3,1,0.544,6.79,9.16
KDELR3,2,-0.98,-3.93,3.99
KDELR3,3,-0.867,-3.13,2.83
KCNH3,1,0.907,9.35,8.69
KCNH3,2,5.76 (active),43.5,19.5
KCNH3,3,-1.3,-6.17,1.97
ANLN,1,3.91,30.5,14.5
ANLN,2,5.86 (active),44.2,22.9
ANLN,3,8.54 (active),63.1,24
SOX8,1,5.58 (active),42.2,25.1
SOX8,2,-0.246,1.23,4.7
SOX8,3,-0.707,-2.01,3.03

Just “G2 robust z-score” (7 entries from above):
CROCC2 #2	-1.38
CROCC2 #3	-0.47
KDELR3 #1	0.544
KDELR3 #2	-0.98
KDELR3 #3	-0.867
KCNH3 #1	0.907
KCNH3 #2	5.76 (active)

Further reagents:
Gene,reagent,G2 robust z-score,"G2 cells, % of GMNN control",raw share of cells in G2 (%)
IP6K1,1,0.236,4.63,7.03
IP6K1,2,-1.41,-6.97,2.66
IP6K1,3,-1.05,-4.43,2.26
KIF12,1,-0.705,-1.99,4.74
KIF12,2,0.888,9.21,8.92
KIF12,3,-0.0164,2.85,5.56
NRAP,1,-0.179,1.71,3.78
NRAP,2,1.08,10.5,9.19
NRAP,3,-0.878,-3.21,3.45
LINC02210,1,-0.133,2.03,4.51
LINC02210,2,0.594,7.15,5.12
LINC02210,3,0.00579,3.01,4.12
LINC02210,4,-0.304,0.828,4.11
LINC02210,5,8.05 (active),59.6,27.2
LINC02210,6,-0.732,-2.18,3.89
SERTM1,1,0.927,9.49,7.26
SERTM1,2,0.592,7.13,6.35
SERTM1,3,-0.885,-3.26,3.44
